# Laboratory results as given in the supplement of paper PMC8728848.
# The list shows a part of the results.
# B1: Surfactant Protein D (Human); Neck + Carbohydrate Recognition Domain (NCRD) (Homo sapiens) (protein)
# chain: MLLFLLSALVLLTQPLGYLEAEMKTYSHRTMPSACTLVMCSSVESGLPGRDRDGREGPRGEKGDPGLPGAAGQAGMPGQAGPVGPKGDNGSVGEPGPKGDTGPSGPPGPPGVPGPAGREGALGKQGNIGPQGKPGPKGEAGPKGEVGAPGMQGSAGARGLAGPKGERGVPGERGVPGNTGAAGSAGAMGPQGSPGARGPPGLKGDKGIPGDKGAKGESGLPDVASLRQQVEALQGQVQHLQAAFSQYKKVELFPNGQSVGEKIFKTAQFVKPFTEAQLLCTQAGGQLASPRSAAENAALQQLVVAKNEAAFLSMTDSKTEGKFTYPTGESLVYSNWAPGKPNDDGGSEDCVEIFTNGKWNDRACGEKRLVVCEF
# Key:
# Experiment in all cases: glycan array binding signal (z-score within array); higher = stronger binding
# Conditions in all cases: glycan notation: IUPAC condensed, linker removed; mutation: E321K
# [1] = target: Neu5Ac(a2-3)Gal(b1-3)GalNAc(b1-3)Gal(a1-4)Gal(b1-4)Glc
# Summary of the method: (§1)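 Glycan array binding is given as a within-array Z-score, which can be read as non-binding when negative. The arrays, 3228 of them, came from the Consortium for Functional Glycomics database and were retained only where the protein sequence was available. Z-scores were averaged across arrays of the same protein sequence at different concentrations or buffers and across linkers.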
# [2] = target: Neu5Ac(a2-3)Gal(b1-3)GalNAc(b1-3)Gal(b1-4)GlcNAc
# Summary of the method: as §1
# [3] = target: Neu5Ac(a2-3)Gal(b1-3)GalNAc(b1-4)[Neu5Ac(a2-3)]Gal(b1-4)Glc
# Summary of the method: as §1
# [4] = target: Neu5Ac(a2-3)Gal(b1-3)GalNAc6S
# Summary of the method: as §1
# [5] = target: Neu5Ac(a2-3)Gal(b1-3)GlcNAc
# Summary of the method: as §1
# [6] = target: Neu5Ac(a2-3)Gal(b1-3)GlcNAc(b1-3)Gal(b1-3)GlcNAc
# Summary of the method: as §1
# [7] = target: Neu5Ac(a2-3)Gal(b1-3)GlcNAc6S
# Summary of the method: as §1
# [8] = target: Neu5Ac(a2-3)Gal(b1-3)[Fuc(a1-4)]GlcNAc
# Summary of the method: as §1
# [9] = target: Neu5Ac(a2-3)Gal(b1-3)[Fuc(a1-4)]GlcNAc(b1-3)Gal(b1-4)[Fuc(a1-3)]GlcNAc
# Summary of the method: as §1
# [10] = target: Neu5Ac(a2-3)Gal(b1-3)[Neu5Ac(a2-3)Gal(b1-4)]GlcNAc
# Summary of the method: as §1
# [11] = target: Neu5Ac(a2-3)Gal(b1-3)[Neu5Ac(a2-6)]GalNAc
# Summary of the method: as §1
# [12] = target: Neu5Ac(a2-3)Gal(b1-4)Glc
# Summary of the method: as §1
# [13] = target: Neu5Ac(a2-3)Gal(b1-4)GlcNAc
# Summary of the method: as §1
# [14] = target: Neu5Ac(a2-3)Gal(b1-4)GlcNAc(b1-2)Man(a1-3)[GlcNAc(b1-2)Man(b1-4)GlcNAc(b1-2)Man(a1-6)]Man(b1-4)GlcNAc(b1-4)GlcNAc
# Summary of the method: as §1
# [15] = target: Neu5Ac(a2-3)Gal(b1-4)GlcNAc(b1-2)Man(a1-3)[Neu5Ac(a2-6)Gal(b1-4)GlcNAc(b1-2)Man(a1-6)]Man(b1-4)GlcNAc(b1-4)GlcNAc
# Summary of the method: as §1
# [16] = target: Neu5Ac(a2-3)Gal(b1-4)GlcNAc(b1-3)Gal(b1-3)GlcNAc
# Summary of the method: as §1
# [17] = target: Neu5Ac(a2-3)Gal(b1-4)GlcNAc(b1-3)Gal(b1-4)GlcNAc
# Summary of the method: as §1
# [18] = target: Neu5Ac(a2-3)Gal(b1-4)GlcNAc(b1-3)Gal(b1-4)GlcNAc(b1-3)Gal(b1-4)GlcNAc
# Summary of the method: as §1
# [19] = target: Neu5Ac(a2-3)Gal(b1-4)GlcNAc(b1-3)Gal(b1-4)[Fuc(a1-3)]GlcNAc
# Summary of the method: as §1
# [20] = target: Neu5Ac(a2-3)Gal(b1-4)GlcNAc(b1-6)[Gal(b1-3)]GalNAc
# Summary of the method: as §1
# [21] = target: Neu5Ac(a2-3)Gal(b1-4)GlcNAc(b1-6)[Neu5Ac(a2-3)Gal(b1-3)]GalNAc
# Summary of the method: as §1
# [22] = target: Neu5Ac(a2-3)Gal(b1-4)GlcNAc6S
# Summary of the method: as §1
# [23] = target: Neu5Ac(a2-3)Gal(b1-4)[Fuc(a1-3)]GlcNAc
# Summary of the method: as §1
# [24] = target: Neu5Ac(a2-3)Gal(b1-4)[Fuc(a1-3)]GlcNAc(b1-3)Gal
# Summary of the method: as §1
# [25] = target: Neu5Ac(a2-3)Gal(b1-4)[Fuc(a1-3)]GlcNAc(b1-3)Gal(b1-4)GlcNAc
# Summary of the method: as §1
# [26] = target: Neu5Ac(a2-3)Gal(b1-4)[Fuc(a1-3)]GlcNAc(b1-3)Gal(b1-4)[Fuc(a1-3)]GlcNAc(b1-3)Gal(b1-4)[Fuc(a1-3)]GlcNAc
# Summary of the method: as §1
# [27] = target: Neu5Ac(a2-3)Gal(b1-4)[Fuc(a1-3)]GlcNAc(b1-6)[Gal(b1-3)]GalNAc
# Summary of the method: as §1
# [28] = target: Neu5Ac(a2-3)Gal(b1-4)[Fuc(a1-3)]GlcNAc6S
# Summary of the method: as §1
# [29] = target: Neu5Ac(a2-3)Gal6S(b1-4)GlcNAc
# Summary of the method: as §1
# [30] = target: Neu5Ac(a2-3)Gal6S(b1-4)[Fuc(a1-3)]GlcNAc
# Summary of the method: as §1
# [31] = target: Neu5Ac(a2-3)GalNAc
# Summary of the method: as §1
# [32] = target: Neu5Ac(a2-3)GalNAc(b1-4)GlcNAc
# Summary of the method: as §1
# [33] = target: Neu5Ac(a2-3)[GalNAc(b1-4)]Gal(b1-4)Glc
# Summary of the method: as §1
# [34] = target: Neu5Ac(a2-3)[GalNAc(b1-4)]Gal(b1-4)GlcNAc
# Summary of the method: as §1
# [35] = target: Neu5Ac(a2-3)[Neu5Ac(a2-6)]GalNAc
# Summary of the method: as §1
# [36] = target: Neu5Ac(a2-6)Gal
# Summary of the method: as §1
# [37] = target: Neu5Ac(a2-6)Gal(b1-4)Glc
# Summary of the method: as §1
# [38] = target: Neu5Ac(a2-6)Gal(b1-4)GlcNAc
# Summary of the method: as §1
binder,measurement,setting,value
B1,glycan array binding signal (z-score),[1],-0.336
same,glycan array binding signal (z-score),[2],-0.559
same,glycan array binding signal (z-score),[3],-0.645
same,glycan array binding signal (z-score),[4],0.404
same,glycan array binding signal (z-score),[5],-0.259
same,glycan array binding signal (z-score),[6],-0.261
same,glycan array binding signal (z-score),[7],-0.012
same,glycan array binding signal (z-score),[8],0.651
same,glycan array binding signal (z-score),[9],-0.389
same,glycan array binding signal (z-score),[10],0.159
same,glycan array binding signal (z-score),[11],1.25
same,glycan array binding signal (z-score),[12],-1.12
same,glycan array binding signal (z-score),[13],2.03
same,glycan array binding signal (z-score),[14],-0.987
same,glycan array binding signal (z-score),[15],-0.766
same,glycan array binding signal (z-score),[16],-0.578
same,glycan array binding signal (z-score),[17],0.019
same,glycan array binding signal (z-score),[18],0.299
same,glycan array binding signal (z-score),[19],0.062
same,glycan array binding signal (z-score),[20],-0.045
same,glycan array binding signal (z-score),[21],-1
same,glycan array binding signal (z-score),[22],-0.383
same,glycan array binding signal (z-score),[23],0.494
same,glycan array binding signal (z-score),[24],-0.166
same,glycan array binding signal (z-score),[25],0.33
same,glycan array binding signal (z-score),[26],-0.677
same,glycan array binding signal (z-score),[27],0.318
same,glycan array binding signal (z-score),[28],-0.18
same,glycan array binding signal (z-score),[29],0.549
same,glycan array binding signal (z-score),[30],0.111
same,glycan array binding signal (z-score),[31],-0.746
same,glycan array binding signal (z-score),[32],3.92
same,glycan array binding signal (z-score),[33],-0.858
same,glycan array binding signal (z-score),[34],0.182
same,glycan array binding signal (z-score),[35],1.14
same,glycan array binding signal (z-score),[36],-0.418
same,glycan array binding signal (z-score),[37],-0.337
same,glycan array binding signal (z-score),[38],0.405
